Read-outs that look alike come from different tables or passages of the source.
Assays:
[1] = reported (19); cited from earlier work
[2] = Filament formation by right angle light scattering; details: 4 mM ATP, 20° C., light scattering at 340 nm

B1: wild-type ParM: prokaryotic actin homologue encoded on Escherichia coli plasmid R1, accession P11904 (protein, listed as Escherichia coli)
chain: MLVFIDDGSTNIKLQWQESDGTIKQHISPNSFKREWAVSFGDKKVFNYTLNGEQYSFDPISPDAVVTTNIAWQYSDVNVVAVHHALLTSGLPVSEVDIVCTLPLTEYYDRNNQPNTENIERKKANFRKKITLNGGDTFTIKDVKVMPESIPAGYEVLQELDELDSLLIIDLGGTTLDISQVMGKLSGISKIYGDSSLGVSLVTSAVKDALSLARTKGSSYLADDIIIHRKDNNYLKQRINDENKISIVTEAMNEALRKLEQRVLNTLNEFSGYTHVMVIGGGAELICDAVKKHTQIRDERFFKTNNSQYDLVNGMYLIGN
critical concentration of filament formation in presence of ADP [1]: ~100 µM
critical concentration of filament formation in presence of ATP [1]: 2.3 µM
critical concentration of filament formation in presence of ATP [2]: 2.5 µM

From US8703913B2, “Sensor” (Medical Research Council, priority 2008, dated 2014)
